{"sequences": {"note": "The chains behind the UniProt entries cited, without tags or fusion partners. Where a name states a change or a piece, a line headed by the entry shows the natural chain unless it says otherwise. Residues count along the entry.", "UniProt Q96FF9, 194-214": "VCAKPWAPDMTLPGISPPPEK", "UniProt Q86WR0": "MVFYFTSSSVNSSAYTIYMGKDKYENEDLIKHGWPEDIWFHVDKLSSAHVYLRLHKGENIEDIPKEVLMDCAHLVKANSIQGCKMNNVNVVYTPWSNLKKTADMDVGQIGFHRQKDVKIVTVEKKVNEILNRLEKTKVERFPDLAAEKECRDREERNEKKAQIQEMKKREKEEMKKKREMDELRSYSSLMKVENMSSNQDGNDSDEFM", "UniProt Q6IPU0": "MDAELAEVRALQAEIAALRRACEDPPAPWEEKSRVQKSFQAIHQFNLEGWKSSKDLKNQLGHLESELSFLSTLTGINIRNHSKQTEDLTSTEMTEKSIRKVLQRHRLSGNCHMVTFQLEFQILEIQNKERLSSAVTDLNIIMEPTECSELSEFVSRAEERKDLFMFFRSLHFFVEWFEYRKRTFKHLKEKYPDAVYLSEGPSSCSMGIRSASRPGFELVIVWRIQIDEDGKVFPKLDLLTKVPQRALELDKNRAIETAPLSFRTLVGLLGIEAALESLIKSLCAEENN", "UniProt Q8IWD4": "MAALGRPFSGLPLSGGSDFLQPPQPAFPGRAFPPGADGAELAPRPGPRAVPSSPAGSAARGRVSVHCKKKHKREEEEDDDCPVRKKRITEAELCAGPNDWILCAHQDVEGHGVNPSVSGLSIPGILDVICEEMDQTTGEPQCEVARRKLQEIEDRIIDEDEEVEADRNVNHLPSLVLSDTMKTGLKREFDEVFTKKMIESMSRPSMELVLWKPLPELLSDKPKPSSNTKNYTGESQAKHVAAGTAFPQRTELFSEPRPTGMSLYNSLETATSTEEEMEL", "UniProt Q5VT06, 2421-2442": "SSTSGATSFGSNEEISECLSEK", "UniProt Q13111, whole entry, looked up": "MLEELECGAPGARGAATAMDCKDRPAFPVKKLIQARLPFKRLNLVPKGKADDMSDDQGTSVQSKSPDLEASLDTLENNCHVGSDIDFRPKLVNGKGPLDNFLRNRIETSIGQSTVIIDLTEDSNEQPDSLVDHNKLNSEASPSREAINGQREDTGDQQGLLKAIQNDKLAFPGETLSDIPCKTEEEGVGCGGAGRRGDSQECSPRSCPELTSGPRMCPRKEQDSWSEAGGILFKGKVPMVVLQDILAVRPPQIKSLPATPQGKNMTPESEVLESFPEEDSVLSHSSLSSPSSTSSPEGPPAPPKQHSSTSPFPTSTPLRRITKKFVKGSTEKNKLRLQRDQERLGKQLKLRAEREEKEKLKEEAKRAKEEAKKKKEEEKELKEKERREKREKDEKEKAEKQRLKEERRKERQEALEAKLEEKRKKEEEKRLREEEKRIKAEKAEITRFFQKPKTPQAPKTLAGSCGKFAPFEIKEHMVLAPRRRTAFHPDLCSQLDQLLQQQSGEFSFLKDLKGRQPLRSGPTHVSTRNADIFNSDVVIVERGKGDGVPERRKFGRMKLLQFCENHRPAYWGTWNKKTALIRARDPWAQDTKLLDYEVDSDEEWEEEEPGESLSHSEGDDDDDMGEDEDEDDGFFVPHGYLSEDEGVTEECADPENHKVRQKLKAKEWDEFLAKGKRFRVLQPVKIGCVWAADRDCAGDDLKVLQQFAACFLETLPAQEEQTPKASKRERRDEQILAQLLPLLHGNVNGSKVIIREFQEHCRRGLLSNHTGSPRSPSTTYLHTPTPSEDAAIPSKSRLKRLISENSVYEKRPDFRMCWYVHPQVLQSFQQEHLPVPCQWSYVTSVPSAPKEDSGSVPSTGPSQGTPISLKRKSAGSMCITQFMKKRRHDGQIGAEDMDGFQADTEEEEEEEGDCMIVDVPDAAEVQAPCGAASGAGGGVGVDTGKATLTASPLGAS", "UniProt Q02224": "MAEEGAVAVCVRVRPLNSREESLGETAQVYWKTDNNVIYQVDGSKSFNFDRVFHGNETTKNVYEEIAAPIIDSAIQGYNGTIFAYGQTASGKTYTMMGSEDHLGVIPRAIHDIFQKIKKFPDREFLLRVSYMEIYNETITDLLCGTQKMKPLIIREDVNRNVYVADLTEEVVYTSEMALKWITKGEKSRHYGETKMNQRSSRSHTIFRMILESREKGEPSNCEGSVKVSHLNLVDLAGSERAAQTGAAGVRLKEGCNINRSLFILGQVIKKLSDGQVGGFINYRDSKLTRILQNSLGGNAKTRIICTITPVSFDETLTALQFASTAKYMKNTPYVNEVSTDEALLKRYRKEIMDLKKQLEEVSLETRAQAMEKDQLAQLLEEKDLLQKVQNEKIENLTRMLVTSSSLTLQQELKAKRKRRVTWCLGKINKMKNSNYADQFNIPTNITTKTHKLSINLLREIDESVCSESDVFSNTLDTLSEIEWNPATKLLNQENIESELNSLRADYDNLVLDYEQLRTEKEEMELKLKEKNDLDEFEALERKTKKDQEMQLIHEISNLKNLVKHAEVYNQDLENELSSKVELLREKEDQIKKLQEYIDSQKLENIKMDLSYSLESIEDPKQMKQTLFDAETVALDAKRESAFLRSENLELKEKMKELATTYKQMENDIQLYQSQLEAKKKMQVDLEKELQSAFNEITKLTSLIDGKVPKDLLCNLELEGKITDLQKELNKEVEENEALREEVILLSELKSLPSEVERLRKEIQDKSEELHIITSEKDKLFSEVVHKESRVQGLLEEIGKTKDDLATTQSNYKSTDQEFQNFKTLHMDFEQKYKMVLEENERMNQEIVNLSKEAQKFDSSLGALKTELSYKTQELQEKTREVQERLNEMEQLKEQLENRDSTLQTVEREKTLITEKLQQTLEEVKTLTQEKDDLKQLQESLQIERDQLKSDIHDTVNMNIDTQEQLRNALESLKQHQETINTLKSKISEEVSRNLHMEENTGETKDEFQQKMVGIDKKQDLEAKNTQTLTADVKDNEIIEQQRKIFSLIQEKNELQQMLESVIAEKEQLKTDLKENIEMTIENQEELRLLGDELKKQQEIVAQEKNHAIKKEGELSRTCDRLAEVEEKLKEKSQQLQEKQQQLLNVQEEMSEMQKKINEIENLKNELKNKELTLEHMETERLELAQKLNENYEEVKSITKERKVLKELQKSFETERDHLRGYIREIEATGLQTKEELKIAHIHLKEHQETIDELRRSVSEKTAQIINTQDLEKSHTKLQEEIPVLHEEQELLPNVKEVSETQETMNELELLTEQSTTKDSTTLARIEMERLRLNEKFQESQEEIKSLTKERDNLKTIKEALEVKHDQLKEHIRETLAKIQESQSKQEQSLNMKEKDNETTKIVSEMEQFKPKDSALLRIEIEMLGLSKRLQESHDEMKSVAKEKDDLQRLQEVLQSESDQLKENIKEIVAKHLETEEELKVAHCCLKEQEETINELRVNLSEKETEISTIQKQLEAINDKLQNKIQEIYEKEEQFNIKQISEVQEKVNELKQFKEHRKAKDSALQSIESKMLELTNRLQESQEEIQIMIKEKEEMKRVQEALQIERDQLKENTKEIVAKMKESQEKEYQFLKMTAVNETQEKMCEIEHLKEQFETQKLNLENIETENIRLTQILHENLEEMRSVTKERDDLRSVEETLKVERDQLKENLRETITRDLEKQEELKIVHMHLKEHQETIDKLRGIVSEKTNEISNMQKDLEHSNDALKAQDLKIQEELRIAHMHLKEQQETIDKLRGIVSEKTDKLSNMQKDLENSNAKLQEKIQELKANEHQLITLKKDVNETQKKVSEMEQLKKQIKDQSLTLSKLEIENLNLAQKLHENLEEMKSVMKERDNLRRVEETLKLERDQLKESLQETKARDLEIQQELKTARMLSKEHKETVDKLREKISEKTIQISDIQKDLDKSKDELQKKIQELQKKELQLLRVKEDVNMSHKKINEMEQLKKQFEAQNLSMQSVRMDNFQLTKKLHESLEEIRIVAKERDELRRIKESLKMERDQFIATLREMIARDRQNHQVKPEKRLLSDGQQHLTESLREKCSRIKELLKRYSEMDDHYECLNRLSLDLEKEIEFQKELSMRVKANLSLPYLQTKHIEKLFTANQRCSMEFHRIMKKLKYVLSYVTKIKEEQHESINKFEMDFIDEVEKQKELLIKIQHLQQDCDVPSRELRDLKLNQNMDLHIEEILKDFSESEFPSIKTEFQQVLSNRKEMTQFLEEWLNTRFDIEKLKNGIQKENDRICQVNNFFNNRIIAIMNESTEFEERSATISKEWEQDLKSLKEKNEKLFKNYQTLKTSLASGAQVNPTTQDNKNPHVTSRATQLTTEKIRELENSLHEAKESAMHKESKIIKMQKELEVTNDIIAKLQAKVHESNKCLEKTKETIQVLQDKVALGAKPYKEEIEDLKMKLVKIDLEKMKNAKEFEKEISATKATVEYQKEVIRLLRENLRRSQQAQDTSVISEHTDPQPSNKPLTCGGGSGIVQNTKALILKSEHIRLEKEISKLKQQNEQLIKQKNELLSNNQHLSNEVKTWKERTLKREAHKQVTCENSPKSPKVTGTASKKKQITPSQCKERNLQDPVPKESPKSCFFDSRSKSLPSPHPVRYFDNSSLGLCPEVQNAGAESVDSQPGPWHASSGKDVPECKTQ", "UniProt Q9H211": "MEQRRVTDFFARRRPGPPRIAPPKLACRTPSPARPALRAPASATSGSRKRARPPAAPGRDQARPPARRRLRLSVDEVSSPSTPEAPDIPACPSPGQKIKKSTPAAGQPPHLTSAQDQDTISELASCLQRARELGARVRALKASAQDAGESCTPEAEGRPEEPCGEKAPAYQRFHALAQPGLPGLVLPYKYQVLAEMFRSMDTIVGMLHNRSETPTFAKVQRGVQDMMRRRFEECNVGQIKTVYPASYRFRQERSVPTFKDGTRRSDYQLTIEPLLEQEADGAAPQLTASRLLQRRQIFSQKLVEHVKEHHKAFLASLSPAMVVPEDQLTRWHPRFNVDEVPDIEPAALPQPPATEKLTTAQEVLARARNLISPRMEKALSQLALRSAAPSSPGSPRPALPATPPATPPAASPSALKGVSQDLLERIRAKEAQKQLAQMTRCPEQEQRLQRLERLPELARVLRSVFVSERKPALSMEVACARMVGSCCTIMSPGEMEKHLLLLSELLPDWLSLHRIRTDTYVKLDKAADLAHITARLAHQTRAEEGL", "UniProt Q7L2Z9": "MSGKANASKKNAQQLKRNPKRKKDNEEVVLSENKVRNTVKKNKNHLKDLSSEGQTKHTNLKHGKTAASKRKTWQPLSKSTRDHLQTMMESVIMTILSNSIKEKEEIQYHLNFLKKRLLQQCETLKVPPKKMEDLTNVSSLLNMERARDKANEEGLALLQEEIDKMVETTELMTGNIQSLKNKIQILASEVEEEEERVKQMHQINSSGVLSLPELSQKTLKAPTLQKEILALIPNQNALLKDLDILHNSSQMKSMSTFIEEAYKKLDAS", "UniProt P50991": "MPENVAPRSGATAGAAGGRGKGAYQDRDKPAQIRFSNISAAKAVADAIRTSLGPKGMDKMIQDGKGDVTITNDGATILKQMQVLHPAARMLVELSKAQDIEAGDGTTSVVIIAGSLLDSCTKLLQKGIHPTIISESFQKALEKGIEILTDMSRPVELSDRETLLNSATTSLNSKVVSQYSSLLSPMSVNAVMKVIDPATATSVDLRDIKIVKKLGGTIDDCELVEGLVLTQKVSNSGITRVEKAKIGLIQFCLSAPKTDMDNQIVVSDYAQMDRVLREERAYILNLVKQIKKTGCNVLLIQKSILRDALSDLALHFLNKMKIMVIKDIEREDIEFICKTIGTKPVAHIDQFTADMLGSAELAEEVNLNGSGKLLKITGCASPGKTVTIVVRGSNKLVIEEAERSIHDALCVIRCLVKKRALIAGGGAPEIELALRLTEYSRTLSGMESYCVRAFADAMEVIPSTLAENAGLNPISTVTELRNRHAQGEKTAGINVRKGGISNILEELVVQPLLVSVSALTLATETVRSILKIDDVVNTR", "UniProt Q9NXV6": "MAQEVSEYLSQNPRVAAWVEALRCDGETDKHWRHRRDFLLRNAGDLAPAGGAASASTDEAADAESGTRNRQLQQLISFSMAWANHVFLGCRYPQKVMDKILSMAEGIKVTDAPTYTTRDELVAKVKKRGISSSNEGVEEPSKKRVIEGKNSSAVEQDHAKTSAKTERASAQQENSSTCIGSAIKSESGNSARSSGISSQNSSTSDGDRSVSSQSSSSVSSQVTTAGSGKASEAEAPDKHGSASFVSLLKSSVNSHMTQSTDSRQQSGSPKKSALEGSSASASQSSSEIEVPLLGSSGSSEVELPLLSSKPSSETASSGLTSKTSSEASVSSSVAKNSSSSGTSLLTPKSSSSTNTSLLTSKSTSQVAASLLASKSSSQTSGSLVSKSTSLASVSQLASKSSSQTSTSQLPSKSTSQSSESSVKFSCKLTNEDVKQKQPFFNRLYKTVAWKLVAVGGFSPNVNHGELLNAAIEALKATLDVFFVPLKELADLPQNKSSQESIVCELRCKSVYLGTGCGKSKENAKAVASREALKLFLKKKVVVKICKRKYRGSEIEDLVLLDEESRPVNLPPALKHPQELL"}, "source": "the supplement of paper PMC11732987", "about": "“Enantioselective OTUD7B fragment discovery through chemoproteomics screening and high-throughput optimisation” (Communications Chemistry, 2025)", "note": "The other results are listed elsewhere or left out. The data scatter; read single values as rough."}
{"compound": "ClCC(=O)N[C@@H]1CCCc2ccccc12", "assay": "log2 mean competition ratio of IA-DTB cysteine labelling (DMSO/compound) (log2 ratio); higher = stronger cysteine engagement by compound", "settings": "50 µM; treatment time: 4 h; cell line lysate: HEK293T", "method": "(§1)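 IA-DTB competitive cysteine chemoproteomics in HEK293T RIPA lysate. Lysates were treated with compound 29 or 30 at 50 or 200 µM for 4 h, then IA-DTB (500 µM, 1 h), trypsin-digested, NeutrAvidin-enriched and analysed by diaPASEF. Competition ratio = intensity DMSO / intensity compound (n=4 treated, n=64 DMSO); binding: mean log2 CR ≥ 1 and p ≤ 0.05 plus QC filters. Target is the cysteine site.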"}
{"target": "CDCA5 C195 (UniProt Q96FF9)", "log2 mean competition ratio": 0.416}
{"target": "CDC16 C544 (UniProt Q13042)", "log2 mean competition ratio": 0.537}
{"target": "CCDC25 C150 (UniProt Q86WR0)", "log2 mean competition ratio": -0.126}
{"target": "CENPP C22 (UniProt Q6IPU0)", "log2 mean competition ratio": -0.252}
{"target": "CCDC117 C81 (UniProt Q8IWD4)", "log2 mean competition ratio": 0.0624}
{"target": "CCDC120 C391", "log2 mean competition ratio": 0.189}
{"target": "CEP350 C2438 (UniProt Q5VT06)", "log2 mean competition ratio": -0.0926}
{"target": "CHAF1A C207 (UniProt Q13111)", "log2 mean competition ratio": 0.00959}
{"target": "CENPE C256 (UniProt Q02224)", "log2 mean competition ratio": -0.00876}
{"target": "CDT1 C441 (UniProt Q9H211)", "log2 mean competition ratio": 0.165}
{"target": "CENPQ C121 (UniProt Q7L2Z9)", "log2 mean competition ratio": -0.00994}
{"target": "CCDC14 C297", "log2 mean competition ratio": -0.196}
{"target": "CCT4 C379 (UniProt P50991)", "log2 mean competition ratio": -0.0552}
{"target": "CCT5 C377 (UniProt P48643)", "log2 mean competition ratio": -0.231}
{"target": "CEBPZ C374 (UniProt Q03701)", "log2 mean competition ratio": -0.17}
{"target": "CENPC C472 (UniProt Q03188)", "log2 mean competition ratio": -0.0724}
{"target": "CEP350 C1999 (UniProt Q5VT06)", "log2 mean competition ratio": 0.119}
{"target": "CDK5 C83 (UniProt Q00535)", "log2 mean competition ratio": -0.314}
{"target": "CDKN2AIP C178 (UniProt Q9NXV6)", "log2 mean competition ratio": -0.0751}
{"target": "CEP170 C967 (UniProt Q5SW79)", "log2 mean competition ratio": -0.0047}
{"compound": "ClCC(=O)N[C@@H]1CCCc2ccccc12", "assay": "log2 mean competition ratio of IA-DTB cysteine labelling (DMSO/compound) (log2 ratio); higher = stronger cysteine engagement by compound", "settings": "200 µM; treatment time: 4 h; cell line lysate: HEK293T", "method": "as §1"}
{"target": "CDCA5 C195 (UniProt Q96FF9)", "log2 mean competition ratio": 0.118}
{"target": "CDC16 C544 (UniProt Q13042)", "log2 mean competition ratio": 0.568}
{"target": "CCDC25 C150 (UniProt Q86WR0)", "log2 mean competition ratio": 0.182}
{"target": "CENPP C22 (UniProt Q6IPU0)", "log2 mean competition ratio": -0.108}
{"target": "CCDC117 C81 (UniProt Q8IWD4)", "log2 mean competition ratio": 0.129}
{"target": "CCDC120 C391", "log2 mean competition ratio": 0.00674}
{"target": "CEP350 C2438 (UniProt Q5VT06)", "log2 mean competition ratio": 0.0619}
{"target": "CHAF1A C207 (UniProt Q13111)", "log2 mean competition ratio": 0.312}
{"target": "CENPE C256 (UniProt Q02224)", "log2 mean competition ratio": 0.355}
{"target": "CDT1 C441 (UniProt Q9H211)", "log2 mean competition ratio": 0.329}
{"target": "CENPQ C121 (UniProt Q7L2Z9)", "log2 mean competition ratio": 0.108}
{"target": "CCDC14 C297", "log2 mean competition ratio": 0.305}
{"target": "CCT4 C379 (UniProt P50991)", "log2 mean competition ratio": -0.128}
{"target": "CCT5 C377 (UniProt P48643)", "log2 mean competition ratio": -0.191}
{"target": "CEBPZ C374 (UniProt Q03701)", "log2 mean competition ratio": 0.2}
{"target": "CENPC C472 (UniProt Q03188)", "log2 mean competition ratio": -0.288}
{"target": "CEP350 C1999 (UniProt Q5VT06)", "log2 mean competition ratio": -0.152}
{"target": "CDK5 C83 (UniProt Q00535)", "log2 mean competition ratio": 0.592}
{"target": "CDKN2AIP C178 (UniProt Q9NXV6)", "log2 mean competition ratio": -0.231}
{"target": "CEP170 C967 (UniProt Q5SW79)", "log2 mean competition ratio": -0.261}
